Reference: article PMC10968680, “FHND004 inhibits malignant proliferation of multiple myeloma by targeting PDZ-binding kinase in MAPK pathway” (Aging (Albany NY), 2024)
These are yes or no findings as the source states them, for the method shown. Binding seen in cells or lysates may run through a third protein. Some entries that bind do so weakly or less than the wild type. Tags and fused reporters may be left off the sequences shown.

Sequences of proteins named here, by UniProt entry; tags and fusion partners are left off.
UniProt P27361: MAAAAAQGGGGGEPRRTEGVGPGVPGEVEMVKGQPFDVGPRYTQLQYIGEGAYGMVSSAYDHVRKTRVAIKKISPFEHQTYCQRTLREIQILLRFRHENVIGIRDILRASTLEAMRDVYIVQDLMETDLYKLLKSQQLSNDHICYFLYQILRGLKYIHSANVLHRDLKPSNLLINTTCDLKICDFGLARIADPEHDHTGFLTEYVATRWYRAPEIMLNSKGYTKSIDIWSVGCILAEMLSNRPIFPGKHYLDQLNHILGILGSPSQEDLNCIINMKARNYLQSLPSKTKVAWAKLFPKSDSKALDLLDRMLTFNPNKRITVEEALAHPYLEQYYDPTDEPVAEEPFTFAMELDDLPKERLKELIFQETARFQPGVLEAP
UniProt P28482: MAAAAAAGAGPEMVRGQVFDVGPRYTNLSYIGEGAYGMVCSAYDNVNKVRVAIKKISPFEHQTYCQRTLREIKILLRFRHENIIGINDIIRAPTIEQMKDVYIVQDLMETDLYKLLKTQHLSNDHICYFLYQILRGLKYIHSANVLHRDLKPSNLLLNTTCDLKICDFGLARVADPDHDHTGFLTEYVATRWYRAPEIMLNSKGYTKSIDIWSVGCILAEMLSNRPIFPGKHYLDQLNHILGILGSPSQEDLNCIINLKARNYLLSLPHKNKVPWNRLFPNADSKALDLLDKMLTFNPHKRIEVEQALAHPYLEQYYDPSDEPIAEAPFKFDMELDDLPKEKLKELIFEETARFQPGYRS

Molecular target: T1, PDZ-binding kinase (PBK), Flag-tagged, stably overexpressed in H929 cells (PBK-OE) (human) (UniProt Q96KB5)
T1 sequence: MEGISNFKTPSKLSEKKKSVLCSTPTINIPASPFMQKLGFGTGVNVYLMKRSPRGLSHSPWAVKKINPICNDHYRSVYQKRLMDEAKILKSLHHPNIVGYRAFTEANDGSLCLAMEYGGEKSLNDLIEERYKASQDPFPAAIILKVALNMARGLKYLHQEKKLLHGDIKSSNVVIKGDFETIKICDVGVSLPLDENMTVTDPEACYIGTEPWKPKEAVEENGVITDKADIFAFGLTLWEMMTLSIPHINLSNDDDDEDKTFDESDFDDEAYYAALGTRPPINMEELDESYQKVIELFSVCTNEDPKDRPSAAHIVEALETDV
Assay: co-IP; H929 PBK-OE cells, RIPA lysate with protease inhibitor, Pierce Direct Magnetic IP/Co-IP kit; cells with or without FHND004 (4 uM); p-ERK1/2 detected by Western blot

Substance	binding
phosphorylated ERK1 (the ERK1 member of p-ERK1/2) (from UniProt P27361 1-379) (enzyme)	binds
phosphorylated ERK2 (the ERK2 member of p-ERK1/2) (from UniProt P28482 1-360) (enzyme)	binds
